The values that follow come from PMC11666463.

The chains behind the UniProt entries cited, without tags or fusion partners. Residues count along the entry.
UniProt P22607, residues 23-806: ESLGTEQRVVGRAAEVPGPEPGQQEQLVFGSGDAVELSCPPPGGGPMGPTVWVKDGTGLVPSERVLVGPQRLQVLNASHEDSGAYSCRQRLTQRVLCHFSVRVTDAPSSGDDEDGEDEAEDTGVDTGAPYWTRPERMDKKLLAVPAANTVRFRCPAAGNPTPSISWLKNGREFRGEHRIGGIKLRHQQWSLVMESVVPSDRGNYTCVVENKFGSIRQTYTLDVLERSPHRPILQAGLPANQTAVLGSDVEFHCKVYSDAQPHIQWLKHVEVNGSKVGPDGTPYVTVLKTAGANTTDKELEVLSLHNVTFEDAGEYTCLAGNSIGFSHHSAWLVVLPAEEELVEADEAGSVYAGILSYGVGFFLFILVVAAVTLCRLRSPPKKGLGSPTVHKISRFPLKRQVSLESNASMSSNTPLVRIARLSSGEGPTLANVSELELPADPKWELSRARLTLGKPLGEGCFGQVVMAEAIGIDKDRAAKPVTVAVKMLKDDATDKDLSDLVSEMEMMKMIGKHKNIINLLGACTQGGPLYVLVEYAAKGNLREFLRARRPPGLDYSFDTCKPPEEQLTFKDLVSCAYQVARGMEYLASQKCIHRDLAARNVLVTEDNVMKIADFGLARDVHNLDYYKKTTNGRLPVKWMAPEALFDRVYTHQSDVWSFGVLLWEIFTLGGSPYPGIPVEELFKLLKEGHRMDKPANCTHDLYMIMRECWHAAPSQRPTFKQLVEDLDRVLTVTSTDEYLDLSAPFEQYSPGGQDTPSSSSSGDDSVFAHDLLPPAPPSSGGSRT
UniProt P21796: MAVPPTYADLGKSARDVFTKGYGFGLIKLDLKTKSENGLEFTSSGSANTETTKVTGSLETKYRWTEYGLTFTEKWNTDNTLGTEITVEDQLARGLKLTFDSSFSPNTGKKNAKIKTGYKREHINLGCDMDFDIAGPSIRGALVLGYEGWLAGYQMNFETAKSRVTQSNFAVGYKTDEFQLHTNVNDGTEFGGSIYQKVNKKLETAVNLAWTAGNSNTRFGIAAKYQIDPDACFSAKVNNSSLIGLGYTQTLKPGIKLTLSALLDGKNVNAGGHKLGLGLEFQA

No constants are given. Whether binding was seen depends on the method and setting. In cells and extracts the contact can be indirect. Some results given as binding are weak or reduced against the parent protein; the word gives no strength.

This assay addresses major vault protein (human (endogenous in H358 and MIA PaCa-2)) (UniProt Q14764). Description: proximity ligation; PLA with two primary antibodies on fixed, methanol-permeabilised H358 or MIA PaCa-2 cells, DMSO or 100 nM AMG-510 for 24 h; some with MVP or scrambled siRNA; puncta per cell.
With “fibroblast growth factor receptor 3 (from UniProt P22607 23-806)”, the binding result is recorded as “binds”.

As to “epidermal growth factor receptor (from UniProt P00533 25-1210)”, the binding result is “binds”.

As to “voltage-dependent anion channel 1 (from UniProt P21796 1-283)”, the binding result is listed as “binds”.
